Test results: PubChem BioAssay (NCATS)
The other results are listed elsewhere or left out. Further columns of the screen follow, without active or inactive calls. Compounds called inactive in the main read-out are mostly missing here. Potencies come from curve fits of mixed quality, noted in brackets. Where a SMILES comes first, the peptide text is derived from it. The star is where a group is joined. Cbz = O=C(OCc1ccccc1)*

Assay: qHTS for identification of novel therapeutic agents for treatment of microphthalmiaassociated transcription factor (MiT) renal cell carcinoma (RCC) (AID 1963991)
Conditions: TFE3-RCC viability, CellTiter-Glo, 48 h; measured here: UOK124 cell viability
In short: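 Three TFE3-fusion RCC lines (UOK109, UOK124, UOK145), 500 cells/well in complete medium, were treated with MIPE 4.0 compounds for 48 hours at 37 C. Viability was by CellTiter-Glo luminescence, normalized to DMSO (100%) and empty wells (0%); curves fitted over 11 concentrations.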

| Structure (SMILES) | AC50 |
| --- | --- |
| COc1cc2c(cc1Cc1cccc(Cl)c1F)c(=O)c(C(=O)O)cn2[C@H](CO)C(C)C | 10.5 µM [falling, partial curve] |
| COc1ccc(-c2nc(N3CCOCC3)c3sc(CN(C)c4ncc(C(=O)NO)cn4)cc3n2)cn1 | 0.0148 µM [falling, full curve] |
| NC(=O)c1cccc2cn(-c3ccc([C@@H]4CCCNC4)cc3)nc12 | 23.5 µM [falling, partial curve, poor fit] |
| CC(C)(C)OC(=O)Nc1ccc(-c2cc(C(=O)NCCCCCCC(=O)NO)no2)cc1 | 11.8 µM [falling, partial curve] |
| Nc1nc(=S)c2[nH]cnc2[nH]1 | 0.833 µM [falling, full curve] |
| CC(C)C[C@@H](C=O)NC(=O)[C@H](CC(C)C)NC(=O)[C@H](CC(C)C)NC(=O)OCc1ccccc1 (Cbz-Leu-Leu-Leu-aldehyde) | 1.48 µM [falling, full curve] |
| CCS(=O)(=O)Nc1ccc2[nH]c(O)c(C(=Nc3ccc(CN4CCCCC4)cc3)c3ccccc3)c2c1 | 13.2 µM [falling, partial curve] |
| CC(C)[C@H](O)C(=O)N[C@@H](C)C(=O)N[C@@H]1C(=O)N(C)CCc2ccccc21 | 6.62 µM [falling, partial curve, poor fit] |
| CC(C)=CC[C@@H](O)C1=CC(=O)c2c(O)ccc(O)c2C1=O | 0.935 µM [falling, full curve] |
| C[C@H](NC(=O)Cc1cc(F)cc(F)c1)C(=O)N[C@H](C(=O)OC(C)(C)C)c1ccccc1 | 8.33 µM [falling, partial curve, poor fit] |
| C=CCc1ccc(O)c(-c2ccc(O)c(CC=C)c2)c1 | 33.2 µM [falling, single point] |
| Fc1ccc(CNc2ncnc3ccc(F)cc23)cc1 | 8.33 µM [falling, partial curve] |

Same assay, conditions: TFE3-RCC viability, CellTiter-Glo, 48 h; measured here: UOK145 Z-AUC; stronger effect = lower value

| Structure (SMILES) | z-score |
| --- | --- |
| COc1cc2c(cc1Cc1cccc(Cl)c1F)c(=O)c(C(=O)O)cn2[C@H](CO)C(C)C | 0.475 |
| Nc1ncnc2c1ncn2[C@@H]1O[C@H](CO)[C@@H](O)[C@@H]1O | -0.147 |
| C[C@H]1c2cccc(O)c2C(O)=C2C(=O)[C@]3(O)C(O)=C(C(N)=O)C(=O)[C@@H](N(C)C)[C@@H]3[C@@H](O)[C@@H]21 | -0.331 |
| NC(=O)c1cccc2cn(-c3ccc([C@@H]4CCCNC4)cc3)nc12 | -0.156 |
| CC(C)(C)OC(=O)Nc1ccc(-c2cc(C(=O)NCCCCCCC(=O)NO)no2)cc1 | -0.219 |
| Nc1nc(=S)c2[nH]cnc2[nH]1 | -0.627 |
| CC(C)(Oc1ccc(C2CC2(Cl)Cl)cc1)C(=O)O (stereo not drawn) | 0.656 |
| CC(C)C[C@@H](C=O)NC(=O)[C@H](CC(C)C)NC(=O)[C@H](CC(C)C)NC(=O)OCc1ccccc1 (Cbz-Leu-Leu-Leu-aldehyde) | -1.64 |
| COc1ccc2ccc(=O)oc2c1CC=C(C)C | 1.36 |
| CCS(=O)(=O)Nc1ccc2[nH]c(O)c(C(=Nc3ccc(CN4CCCCC4)cc3)c3ccccc3)c2c1 | 0.299 |
| CC(C)[C@H](O)C(=O)N[C@@H](C)C(=O)N[C@@H]1C(=O)N(C)CCc2ccccc21 | 0.0115 |
| CC(C)=CC[C@@H](O)C1=CC(=O)c2c(O)ccc(O)c2C1=O | -0.431 |
| O=c1[nH]c(=O)n([C@H]2C[C@@H](O)[C@@H](CO)O2)cc1C=CBr | 0.115 |
| CCN(CCO)CCCC(C)Nc1ccnc2cc(Cl)ccc12 (stereo not drawn) | -0.0617 |
| C[C@H](NC(=O)Cc1cc(F)cc(F)c1)C(=O)N[C@H](C(=O)OC(C)(C)C)c1ccccc1 | 0.0666 |
| O=C(O)CCC1CCC(c2cc(F)ccc2F)(S(=O)(=O)c2ccc(Cl)cc2)CC1 (stereo not drawn) | -0.0397 |
| Cc1ccc2c(=O)c3cccc(CC(=O)O)c3oc2c1C | 0.672 |
| C=CCc1ccc(O)c(-c2ccc(O)c(CC=C)c2)c1 | 0.582 |
| C[C@]1(c2nc3c(C(N)=O)cccc3[nH]2)CCCN1 | -0.0624 |
| Fc1ccc(CNc2ncnc3ccc(F)cc23)cc1 | 0.0745 |
| C[C@H](NC(=O)[C@@H](O)c1cc(F)cc(F)c1)C(=O)N[C@@H]1C(=O)N(C)c2ccccc2-c2ccccc21 | 0.114 |

Pulled by compound from the list above:

| Structure (SMILES) | z-score |
| --- | --- |
| NC(=O)c1cccc2cn(-c3ccc([C@@H]4CCCNC4)cc3)nc12 | -0.156 |
| Nc1ncnc2c1ncn2[C@@H]1O[C@H](CO)[C@@H](O)[C@@H]1O | -0.147 |

Same assay, conditions: TFE3-RCC viability, CellTiter-Glo, 48 h; measured here: UOK145 cell viability

| Structure (SMILES) | AC50 |
| --- | --- |
| COc1ccc(-c2nc(N3CCOCC3)c3sc(CN(C)c4ncc(C(=O)NO)cn4)cc3n2)cn1 | 0.0209 µM [falling, full curve] |
| Nc1ncnc2c1ncn2[C@@H]1O[C@H](CO)[C@@H](O)[C@@H]1O | 3.32 µM [falling, full curve] |
| NC(=O)c1cccc2cn(-c3ccc([C@@H]4CCCNC4)cc3)nc12 | 20.9 µM [falling, partial curve, poor fit] |
| CC(C)(C)OC(=O)Nc1ccc(-c2cc(C(=O)NCCCCCCC(=O)NO)no2)cc1 | 14.8 µM [falling, partial curve] |
| Nc1nc(=S)c2[nH]cnc2[nH]1 | 2.64 µM [falling, full curve] |
| CC(C)(Oc1ccc(C2CC2(Cl)Cl)cc1)C(=O)O (stereo not drawn) | 48.1 µM [falling, partial curve, poor fit] |
| CC(C)C[C@@H](C=O)NC(=O)[C@H](CC(C)C)NC(=O)[C@H](CC(C)C)NC(=O)OCc1ccccc1 (Cbz-Leu-Leu-Leu-aldehyde) | 0.935 µM [falling, full curve] |
| COc1ccc2ccc(=O)oc2c1CC=C(C)C | 9.35 µM [falling, full curve] |
| CCS(=O)(=O)Nc1ccc2[nH]c(O)c(C(=Nc3ccc(CN4CCCCC4)cc3)c3ccccc3)c2c1 | 11.8 µM [falling, partial curve] |
| CC(C)=CC[C@@H](O)C1=CC(=O)c2c(O)ccc(O)c2C1=O | 3.72 µM [falling, full curve] |
| CCN(CCO)CCCC(C)Nc1ccnc2cc(Cl)ccc12 (stereo not drawn) | 23.5 µM [falling, partial curve, poor fit] |
| O=C(O)CCC1CCC(c2cc(F)ccc2F)(S(=O)(=O)c2ccc(Cl)cc2)CC1 (stereo not drawn) | 14.8 µM [falling, partial curve] |
| Cc1ccc2c(=O)c3cccc(CC(=O)O)c3oc2c1C | 26.4 µM [falling, single point] |
| C=CCc1ccc(O)c(-c2ccc(O)c(CC=C)c2)c1 | 33.2 µM [falling, single point] |
| C[C@H](NC(=O)[C@@H](O)c1cc(F)cc(F)c1)C(=O)N[C@@H]1C(=O)N(C)c2ccccc2-c2ccccc21 | 4.18 µM [falling, partial curve, poor fit] |
